For orientation: AC50 means the concentration giving half of the maximal activity seen.

The other results are listed elsewhere or left out. These are further read-outs of the screen, such as a control signal, another cell line or another target. No call is given for them. Most of these compounds were active or inconclusive in the main read-out, so they are no random draw. Words in brackets tell the shape of the fitted curve; partial curves, single points and poor fits give uncertain potencies.

The nature of this experiment: IkB Signaling. To be noted: ABC-DLBCL IkBa-CBG/CBR dual luciferase ratio (green luciferase fused to IkBa over red control in OCI-Ly3 lymphoma cells), 4 h. Put shortly: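 Curves were fitted separately to fusion (green), unfused (red) and ratio luminescence, then classed by r2, magnitude and activity. Cells: OCI-Ly3, 4 h compound plus doxycycline at 37C; 10 uM MG-132 defined full response.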
The mark [1] stands for this setting: measured here: control luc red channel unless noted.

As to `O=C(Cc1coc2cc3c(cc12)CCC3)OCc1cc(=O)n2c(n1)sc1ccccc12`, the AC50 under setting [1] is 10 µM [falling, partial curve].

Take `COc1ccc(C(CNC(=O)c2ccc(F)cc2)N2CCCC2)cc1` (centres undefined): under setting [1], the AC50 is 0.316 µM [rising, full curve]. Same read-out and setting: the value for `CC(=O)N1CCc2c(sc3c2c(=O)n(Cc2ccccc2)c(=O)n3Cc2ccccc2F)C1` was 39.8 µM [falling, single point]; that for `O=C(Cc1cccs1)Nc1c(C(=O)Nc2ccc(F)cc2)oc2ccccc12` was 5.01 µM [falling, partial curve]; that for `Cc1ccc(OCc2nnc(SCc3nc4ccccc4[nH]3)n2Cc2ccco2)cc1` was 6.31 µM [falling, partial curve]. Still for that read-out and setting: the figure for `COc1ccc(CCC(=O)NCc2ccc3c(c2)CCN3C(=O)c2ccccc2)cc1` is 15.8 µM [falling, single point]; for `Cc1cnc(NC(=O)CSc2nc3ccccc3c(=O)[nH]2)s1` it is 10 µM [falling, partial curve]; for `CC(C)(C)OC(=O)N1CCc2nc(N3CCN(c4ncccn4)CC3)ncc2C1` it is 12.6 µM [falling, single point].

Regarding `CCS(=O)(=O)N1CCc2cc(C(=O)N3CCN(c4ccccc4OC)CC3)ccc21`, the AC50 under setting [1] is 10 µM [falling, partial curve]. For `COC(=O)c1cccc(S(=O)(=O)N2CCN(c3nc4ccccc4s3)CC2)c1`, under setting [1], the AC50 was 20 µM [rising, partial curve]. With `COC(=O)CSc1nnc(-c2ccc(NS(=O)(=O)c3ccccc3)cc2)o1`, the AC50 under setting [1] was 25.1 µM [falling, partial curve]. `COc1ccc(-c2n[nH]c(C)c2-c2cnn(-c3ccccc3)c2)c(O)c1`: the half-maximal activity concentration (AC50) under setting [1] was 15.8 µM [falling, partial curve]. Same read-out and setting: the value for `Cc1oc2cc3oc(=O)c(CC(=O)NCc4ccccc4)c(C)c3cc2c1C` was 15.8 µM [falling, single point]; that for `O=C1c2ccccc2C(=O)C1c1ccc2ccccc2n1` was 2.51 µM [falling, full curve]; that for `COc1cccc(NC(=O)c2oc3ccccc3c2NC(=O)c2ccc(F)c(F)c2)c1` was 39.8 µM [falling, single point]. The same measure, in the same setting: the value for `O=C(CSc1nc2nccnc2c(=O)n1CCc1c[nH]c2ccccc12)Nc1ccccc1` was 39.8 µM [falling, single point]; that for `O=C(NC1CC(=O)N(c2ccccc2)C1)C(c1ccccc1)c1ccccc1` (centres undefined) was 31.6 µM [falling, single point]. For `Cc1c(CCNC(=O)c2ccc(Br)o2)sc2nc(-c3ccc(Cl)cc3)nn12`, the AC50 is 39.8 µM [falling, single point] (measured here: IkB-luc green channel) and 20 µM [falling, partial curve] (measured here: control luc red channel).

These data come from PubChem BioAssay AID445 (National Center for Advancing Translational Sciences (NCATS), 2006).
